According to publication PMC9226154:
Results are given in words; binding and its absence hold for the method and conditions named. In cells and extracts the contact can be indirect. Binding calls can cover weak binding; strength is not graded here. For some assays here: Tags and fused reporters may be left off the sequences shown.

Key:
[1] = molecular target: T1, ASNS (asparagine synthetase), form not stated (human) (UniProt P08243); assay: co-IP; ASNS purified by IgG magnetic beads, co-precipitate detected by blot; cells not given
T1 sequence: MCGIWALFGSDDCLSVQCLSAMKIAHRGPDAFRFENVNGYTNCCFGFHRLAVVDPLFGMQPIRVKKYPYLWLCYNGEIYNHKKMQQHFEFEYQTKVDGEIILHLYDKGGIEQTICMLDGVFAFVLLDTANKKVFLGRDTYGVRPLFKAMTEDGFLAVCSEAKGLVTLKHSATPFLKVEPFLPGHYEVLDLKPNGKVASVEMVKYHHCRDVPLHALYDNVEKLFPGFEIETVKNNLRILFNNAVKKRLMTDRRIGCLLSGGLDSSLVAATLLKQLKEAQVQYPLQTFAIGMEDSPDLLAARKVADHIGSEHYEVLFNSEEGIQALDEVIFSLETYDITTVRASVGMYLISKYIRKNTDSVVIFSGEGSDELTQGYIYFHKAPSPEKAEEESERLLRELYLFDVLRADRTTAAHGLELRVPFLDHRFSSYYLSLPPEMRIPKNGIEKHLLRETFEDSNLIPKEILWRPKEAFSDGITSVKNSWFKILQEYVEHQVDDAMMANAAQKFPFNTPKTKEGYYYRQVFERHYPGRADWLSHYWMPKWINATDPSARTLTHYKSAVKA

[2] = molecular target: T2, ASNS-FLAG (asparagine synthetase) (human) (UniProt P08243); assay: co-IP; AKT-HA and ASNS-FLAG plasmids transfected into HEK-293T cells for 2 days; AKT or ASNS purified by magnetic beads, co-precipitate detected by blot
T2 sequence: T1 sequence

Substance	binding [1]	binding [2]
AKT (as found with ASNS in Fig. 6H) (enzyme)	binds	–
AKT-HA (enzyme)	–	binds
